Experimental data from US12320800B2, “High-throughput automation of organoids for identifying therapeutic strategies” (UNIVERSITY OF WASHINGTON, priority 2018, dated 2025).
At least one structure is not confirmed: it was looked up by name or label, or the drawing left a doubt.

System: HTS kidney organoid tubules
Assay: Forskolin-induced cystic swelling in HTS kidney organoid plates
Type: cell-based, human
Settings: increasing concentrations, 72 hours

Q: For C=C[C@@]1(C)CC(=O)[C@]2(O)[C@@]3(C)[C@@H](O)CCC(C)(C)[C@@H]3[C@H](O)[C@H](OC(C)=O)[C@@]2(C)O1 [Forskolin], which “cystic swelling of organoid tubules” value is on record?
A: The value was “cystic swelling of HTS kidney organoid tubules in a dose-dependent manner”.
